Data on 1 substance can be found in paper PMC2567001.

Amino acid sequences for entries named in this document (tags omitted).
UniProt Q24368: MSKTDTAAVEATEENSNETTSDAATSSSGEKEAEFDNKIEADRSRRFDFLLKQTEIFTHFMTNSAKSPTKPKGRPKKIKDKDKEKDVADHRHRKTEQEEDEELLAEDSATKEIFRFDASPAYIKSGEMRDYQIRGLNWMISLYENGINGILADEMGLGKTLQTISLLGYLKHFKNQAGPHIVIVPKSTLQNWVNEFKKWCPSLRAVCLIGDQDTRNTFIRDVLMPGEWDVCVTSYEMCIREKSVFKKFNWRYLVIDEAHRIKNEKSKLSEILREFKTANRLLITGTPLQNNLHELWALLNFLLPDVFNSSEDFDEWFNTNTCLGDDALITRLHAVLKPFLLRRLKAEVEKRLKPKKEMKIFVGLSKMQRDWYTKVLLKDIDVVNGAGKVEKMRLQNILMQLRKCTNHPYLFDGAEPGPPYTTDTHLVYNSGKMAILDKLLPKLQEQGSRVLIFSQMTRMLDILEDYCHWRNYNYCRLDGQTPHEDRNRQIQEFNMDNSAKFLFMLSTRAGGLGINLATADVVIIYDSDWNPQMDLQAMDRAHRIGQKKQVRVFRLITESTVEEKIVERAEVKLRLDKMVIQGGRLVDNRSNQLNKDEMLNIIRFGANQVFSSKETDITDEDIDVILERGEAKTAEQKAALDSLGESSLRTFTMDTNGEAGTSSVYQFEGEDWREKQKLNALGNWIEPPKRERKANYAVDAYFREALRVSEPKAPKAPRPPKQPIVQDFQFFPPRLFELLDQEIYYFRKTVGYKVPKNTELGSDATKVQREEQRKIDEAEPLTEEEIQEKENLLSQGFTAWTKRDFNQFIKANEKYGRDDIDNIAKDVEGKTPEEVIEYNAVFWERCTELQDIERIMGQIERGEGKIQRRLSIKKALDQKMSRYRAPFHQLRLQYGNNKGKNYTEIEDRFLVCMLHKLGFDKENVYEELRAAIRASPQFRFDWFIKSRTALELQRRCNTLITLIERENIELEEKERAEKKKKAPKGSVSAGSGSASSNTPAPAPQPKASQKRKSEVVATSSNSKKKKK
UniProt P09874: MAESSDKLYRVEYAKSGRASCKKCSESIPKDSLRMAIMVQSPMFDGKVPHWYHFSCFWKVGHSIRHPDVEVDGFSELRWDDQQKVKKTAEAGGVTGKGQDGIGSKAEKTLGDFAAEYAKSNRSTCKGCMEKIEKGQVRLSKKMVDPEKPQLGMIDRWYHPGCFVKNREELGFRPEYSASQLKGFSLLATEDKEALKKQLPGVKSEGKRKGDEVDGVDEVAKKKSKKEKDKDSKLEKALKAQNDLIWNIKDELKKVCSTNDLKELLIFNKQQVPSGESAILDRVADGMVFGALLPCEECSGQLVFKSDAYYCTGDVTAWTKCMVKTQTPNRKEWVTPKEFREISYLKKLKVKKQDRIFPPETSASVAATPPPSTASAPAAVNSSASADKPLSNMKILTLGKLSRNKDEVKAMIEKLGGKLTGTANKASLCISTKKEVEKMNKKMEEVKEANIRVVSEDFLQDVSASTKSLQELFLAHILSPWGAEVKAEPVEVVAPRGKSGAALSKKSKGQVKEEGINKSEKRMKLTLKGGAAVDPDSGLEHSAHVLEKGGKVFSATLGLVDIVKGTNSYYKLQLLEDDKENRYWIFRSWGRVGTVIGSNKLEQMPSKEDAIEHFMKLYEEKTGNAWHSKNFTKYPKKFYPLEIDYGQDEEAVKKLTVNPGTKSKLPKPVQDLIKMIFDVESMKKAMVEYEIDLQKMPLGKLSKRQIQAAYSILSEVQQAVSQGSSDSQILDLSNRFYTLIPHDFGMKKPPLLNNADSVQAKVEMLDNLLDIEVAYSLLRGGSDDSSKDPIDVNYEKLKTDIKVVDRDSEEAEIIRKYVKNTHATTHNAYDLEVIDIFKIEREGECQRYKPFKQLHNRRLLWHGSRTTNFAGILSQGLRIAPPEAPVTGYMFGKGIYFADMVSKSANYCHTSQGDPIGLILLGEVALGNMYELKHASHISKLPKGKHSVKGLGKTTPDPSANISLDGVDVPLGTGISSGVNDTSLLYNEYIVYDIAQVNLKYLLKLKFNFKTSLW

Results are given in words; binding and its absence hold for the method and conditions named. Some results given as binding are weak or reduced against the parent protein; the word gives no strength.

Assay [1] has as its target FLAG-epitope tagged recombinant ISWI (Drosophila melanogaster) (UniProt Q24368). In words: pull-down; as the pull-down without DNA, but with activated DNA (Trevigen) in the binding reaction: PARP is stimulated, PARP self-PARylates and ISWI is PARylated; 15 min at 25 °C; Anti-FLAG M2 affinity gel; both purified.
The target is the same in assay [2]. In words: pull-down; 8 nmol FLAG-ISWI incubated with 8 nmol purified PARP-1 in 1X PARP cocktail, 100 mM Tris-HCl pH 8, 1 mM MgCl2, 1 mM DTT, without activated DNA, 15 min at 25 °C; FLAG-ISWI pulled down with Anti-FLAG M2 affinity gel; Western blot with aISWI and aPARP; both purified.

On to “purified PARP-1 (Trevigen) (from UniProt P09874 1-1014) (enzyme)”, for which the binding entry was “binds weakly” in assay [1] and “binds” in assay [2].
